PubChem BioAssay AID1259254 – NCATS, 2017
This is one part, drawn at random, of about 59,000 reagents tested. Over the whole deposit, about 1,550 (2.6%) got an active call. 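G2 share is only a proxy for re-replication; each gene was hit by three separate siRNAs, and active genes were retested.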 Not all columns of the deposit are shown. Not given: the amount of reagent.

- Aim: 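Gene knock-downs that lead to re-replication, shown by excess G2 DNA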 (primary screen)
- System: human HCT116 colorectal cancer cells
- Knock-down reagent: single siRNA against human genes
- Timing: 3 days
- Measured: 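Imaged Hoechst DNA stain sorts each cell into a cycle phase by DNA amount; per plate, G2 fraction set to 0% for non-targeting and 100% for GMNN siRNA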
- Scale: G2 robust z-score: higher = more G2 cells, more excess DNA replication
- Active means: 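An siRNA counts as active if its G2 robust z-score lies at least 5 MADs above the screen median; here such calls match roughly 38% of GMNN control or more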

| target gene | PubChem SID | G2 robust z-score | Outcome |
| --- | --- | --- | --- |
| UCKL1 (GeneID 54963) | SID160742614 | -0.877 | inactive |
| UCKL1 (GeneID 54963) | SID160742615 | -0.0632 | inactive |
| UCKL1 (GeneID 54963) | SID160742616 | -0.214 | inactive |
| TRPM2 (GeneID 7226) | SID160718370 | 0.895 | inactive |
| TRPM2 (GeneID 7226) | SID160718371 | -0.667 | inactive |
| TRPM2 (GeneID 7226) | SID160718372 | 1.1 | inactive |
| MTO1 (GeneID 25821) | SID160737045 | 3.19 | inactive |
| MTO1 (GeneID 25821) | SID160737046 | 1.23 | inactive |
| MTO1 (GeneID 25821) | SID160737047 | -0.205 | inactive |
| RGS17 (GeneID 26575) | SID160738087 | -1.26 | inactive |
| RGS17 (GeneID 26575) | SID160738088 | 0.592 | inactive |
| RGS17 (GeneID 26575) | SID160738089 | -0.315 | inactive |
| SDE2 (GeneID 163859) | SID160760078 | -0.446 | inactive |
| SDE2 (GeneID 163859) | SID160760079 | 2.8 | inactive |
| SDE2 (GeneID 163859) | SID160760081 | -0.837 | inactive |
| SCAF4 (GeneID 57466) | SID160746026 | -0.541 | inactive |
| SCAF4 (GeneID 57466) | SID160746027 | -0.317 | inactive |
| SCAF4 (GeneID 57466) | SID160746028 | 0.396 | inactive |
| NXF3 (GeneID 56000) | SID160731542 | -1.06 | inactive |
| NXF3 (GeneID 56000) | SID160744718 | -0.89 | inactive |
| NXF3 (GeneID 56000) | SID160744719 | 2.82 | inactive |
| KRTAP5-7 (GeneID 440050) | SID160725377 | 2.51 | inactive |
| KRTAP5-7 (GeneID 440050) | SID160731241 | 0.455 | inactive |
| KRTAP5-7 (GeneID 440050) | SID160767669 | 1.87 | inactive |
| IRX4 (GeneID 50805) | SID160731338 | -0.435 | inactive |
| IRX4 (GeneID 50805) | SID160739704 | 1.08 | inactive |
| IRX4 (GeneID 50805) | SID160739705 | -0.405 | inactive |
| RAB27A (GeneID 5873) | SID160715555 | 0.98 | inactive |
| RAB27A (GeneID 5873) | SID160715556 | -0.509 | inactive |
| RAB27A (GeneID 5873) | SID160715557 | 0.966 | inactive |
| TRMT9B (GeneID 57604) | SID160733674 | 0.551 | inactive |
| TRMT9B (GeneID 57604) | SID160746388 | -0.0919 | inactive |
| TRMT9B (GeneID 57604) | SID160746389 | -1.04 | inactive |
| ANXA5 (GeneID 308) | SID160717845 | -0.148 | inactive |
| ANXA5 (GeneID 308) | SID160717854 | -0.319 | inactive |
| ANXA5 (GeneID 308) | SID160717864 | 4.47 | inactive |
| SHISA2 (GeneID 387914) | SID160733194 | -0.635 | inactive |
| SHISA2 (GeneID 387914) | SID160765725 | -0.302 | inactive |
| SHISA2 (GeneID 387914) | SID160765726 | 1.91 | inactive |
| SOX9 (GeneID 6662) | SID160717209 | 0.224 | inactive |
| SOX9 (GeneID 6662) | SID160717210 | 1.78 | inactive |
| SOX9 (GeneID 6662) | SID160717211 | -0.366 | inactive |
| SRGAP3 (GeneID 9901) | SID160723385 | 0.524 | inactive |
| SRGAP3 (GeneID 9901) | SID160732224 | 4.85 | inactive |
| SRGAP3 (GeneID 9901) | SID160732225 | -0.996 | inactive |
| HLTF (GeneID 6596) | SID160717030 | 1.52 | inactive |
| HLTF (GeneID 6596) | SID160717031 | 2.39 | inactive |
| HLTF (GeneID 6596) | SID160717032 | -0.676 | inactive |

4 entries from above, set out differently:
{"target gene":"IRX4 (GeneID 50805)","PubChem SID":"SID160739704","G2 robust z-score":1.08,"Outcome":"inactive"}
{"target gene":"IRX4 (GeneID 50805)","PubChem SID":"SID160739705","G2 robust z-score":-0.405,"Outcome":"inactive"}
{"target gene":"RAB27A (GeneID 5873)","PubChem SID":"SID160715555","G2 robust z-score":0.98,"Outcome":"inactive"}
{"target gene":"RAB27A (GeneID 5873)","PubChem SID":"SID160715556","G2 robust z-score":-0.509,"Outcome":"inactive"}
